Laboratory results published in patent US20050203013A1, “Methods for inhibiting vascular permeability” (priority 2002, published 2005).

Tested on: A2058 melanoma and U87 glioblastoma tumors
Assay: Tumor vessel density by immunohistochemical staining (SMA, PCNA, CD31)
Assay type: in vivo, mice
Conditions: for vessel density (SMA, PCNA or CD31 staining): A2058 melanoma or U87 glioblastoma, 3 days (TNP-470 forms) or 5 days (angiostatin); for microvessel density (CD31 staining): U87 glioblastoma, ± standard error

| Compound | vessel density (SMA, PCNA or CD31 staining) | microvessel density (CD31 staining) |
| --- | --- | --- |
| CO[C@@H]1[C@H](OC(=O)NC(=O)CCl)CC[C@]2(CO2)[C@H]1[C@@]1(C)O[C@@H]1CC=C(C)C [TNP-470] | no significant difference | 108±24 microvessels per square mm |
| angiostatin | no significant difference | 105±15 microvessels per square mm |
